Test results taken from article PMC5805746.
Results are given in words; binding and its absence hold for the method and conditions named. Binding seen in cells or lysates may run through a third protein. These calls come from enrichment with a bait or labelling near it, and not all partners need be listed. Sequences can lack the tags named with a protein.

What was measured:
[1] = biological target: T1, Lsm8 (myc epitope-tagged) (S. pombe) (UniProt O74483); assay: affinity purification with mass spectrometry; immunoprecipitation of individual myc epitope-tagged Sm and Lsm subunits from S. pombe strains; associated proteins identified by mass spectrometry; control IPs in parallel
T1 sequence: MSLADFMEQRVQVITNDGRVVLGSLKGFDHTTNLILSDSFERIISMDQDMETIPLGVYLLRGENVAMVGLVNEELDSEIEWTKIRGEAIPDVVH

[2] = biological target: T2, Lsm2 (myc epitope-tagged) (S. pombe) (UniProt O94408); assay: as above
T2 sequence: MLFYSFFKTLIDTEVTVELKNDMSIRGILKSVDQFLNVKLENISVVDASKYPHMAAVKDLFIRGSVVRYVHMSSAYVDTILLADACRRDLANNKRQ

B1: Pof8 (protein, UniProt O13795 1-402)
chain: MFVPRQLNVRKIKAFTGKENNSIADGNNNKLKDEHYKHNEASKEPSHSISGGLMLNQQDRQLIEPLNPDFLSAVDSILEIYFHRERQKEKVHLAFLIQQDDFWKGIRPNPTQNNLKYALSYVTNALFHFDNSSHMVIRNENIVLPLDIPLYDRIIYVEPVPATLSNKSLLLAGKLRKYLKEFLPYVDAIGTPEGYAFVILYKKVDQSALSKLPVPPGWVLLTRKEWTNREEKYFENQLHLVKASSSDVSNSSNSFPENRYPKLTKVEKQMTKSVSKTSQTDKDEDNLDFTKNLLTRIKNLHPLTNKSTIHSLLSYVFSRQTQNIACEPMYIDYRKDETEAIIRWKTPLHAETCINAFRTQERKQNSHDDIRAHRKKGSSRPFLIAELITGEEEKNYWRMLKK
- binding [1]: binds
- binding [2]: binds
